Assay results reported in publication PMC8857493.
Results are given in words; binding and its absence hold for the method and conditions named. Some binding calls cover weakened binding; strength is not graded here. Sequences can lack the tags named with a protein.

Target: T1, p47-FL, yeast two-hybrid fusion (UniProt Q9UNZ2)
T1 sequence: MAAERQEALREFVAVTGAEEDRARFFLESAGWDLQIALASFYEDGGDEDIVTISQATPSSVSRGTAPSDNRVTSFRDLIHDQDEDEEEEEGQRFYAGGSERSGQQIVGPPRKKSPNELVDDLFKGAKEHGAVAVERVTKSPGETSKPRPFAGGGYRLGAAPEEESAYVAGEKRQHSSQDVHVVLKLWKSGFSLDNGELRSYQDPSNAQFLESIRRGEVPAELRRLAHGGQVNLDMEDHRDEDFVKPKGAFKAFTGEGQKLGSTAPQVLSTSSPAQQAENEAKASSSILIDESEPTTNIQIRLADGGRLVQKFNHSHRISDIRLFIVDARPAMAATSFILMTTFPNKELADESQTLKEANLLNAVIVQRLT
Assay: two-hybrid; Matchmaker GAL4 Yeast Two-Hybrid 3 system; pGADT7- and pGBKT7-based plasmids (AD and DBD fusions) cotransformed into yeast AH109; growth on selective medium (Leu/Trp/Ade/His deficient); VCP variants against VCP cofactors

binding | Substance
binds | VCP mutant m4 [V108A/K109A/Y110A], yeast two-hybrid fusion (from UniProt P55072 1-806)
binds | VCP mutant m5a (E141A), yeast two-hybrid fusion (from UniProt P55072 1-806)
binds | VCP mutant m5b (Y143A), yeast two-hybrid fusion (from UniProt P55072 1-806)
binds | Valosin-containing protein/p97 (VCP), full-length, wild type, yeast two-hybrid fusion (from UniProt P55072 1-806)
binds | VCP mutant m4+2b (R53A/V108A/K109A/Y110A), yeast two-hybrid fusion (from UniProt P55072 1-806)

More lines, now with the values behind:

Substance | binding
VCP mutant m1 [D35A/V38A], yeast two-hybrid fusion (from UniProt P55072 1-806) | binds
VCP mutant m2a [F52A], yeast two-hybrid fusion (from UniProt P55072 1-806) | binds
VCP mutant m3 [I70A/L72A], yeast two-hybrid fusion (from UniProt P55072 1-806) | binds
VCP mutant m5 [E141A/Y143A], yeast two-hybrid fusion (from UniProt P55072 1-806) | binds
VCP mutant m2b [R53A], yeast two-hybrid fusion (from UniProt P55072 1-806) | binds
